Reference: PubChem BioAssay AID504786 (Drosophila RNAi Screening Center, 2011)
Screen: 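Fly genes required for HIF-dependent transcription when hypoxia is mimicked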 (primary screen). Cells: Drosophila S2 cells with a stable HIF luciferase reporter. Knock-down reagent: long dsRNA against Drosophila genes, about 0.2 µg dsRNA per well of a 384-well plate. Duration: three days of knock-down, then 20 h of DFO before reading. Conditions: desferrioxamine (DFO) at 100 µM, an iron chelator that mimics hypoxia, for 20 h. Detection: 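HIF reporter luminescence in cells given 100 µM DFO for 20 h, using the mouse ldh-a hypoxia-response element, scored as per-plate z-scores; higher means greater loss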. Direction: z-score: higher = stronger loss of HIF reporter signal.
The screen tested about 21,000 reagents; shown is a random part of those that have a named target and a result. 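Primary screen; positive scores mean lost reporter signal, so the sign may be inverted from the usual convention.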

{"Target gene": "CG8675", "dsRNA": "DRSC20117", "z-score, replicate 1": -0.2, "z-score, replicate 2": -0.3}
{"Target gene": "CG4612", "dsRNA": "DRSC04478", "z-score, replicate 1": -0.2, "z-score, replicate 2": -0.2}
{"Target gene": "CG31141", "dsRNA": "DRSC13646", "z-score, replicate 1": -0.2, "z-score, replicate 2": -0.1}
{"Target gene": "Pop1", "dsRNA": "DRSC17739", "z-score, replicate 1": -0.1, "z-score, replicate 2": -0.1}
{"Target gene": "Lip2", "dsRNA": "DRSC02577", "z-score, replicate 1": -0.4, "z-score, replicate 2": -0.1}
{"Target gene": "Lip2", "dsRNA": "DRSC02578", "z-score, replicate 1": -0.3, "z-score, replicate 2": -0.3}
{"Target gene": "Rhau", "dsRNA": "DRSC03200", "z-score, replicate 1": -0.2, "z-score, replicate 2": 0}
{"Target gene": "IntS2", "dsRNA": "DRSC20094", "z-score, replicate 1": 0.8, "z-score, replicate 2": 0.5}
{"Target gene": "CG9449", "dsRNA": "DRSC11073", "z-score, replicate 1": -0.3, "z-score, replicate 2": -0.2}
{"Target gene": "CG15035", "dsRNA": "DRSC17967", "z-score, replicate 1": -0.3, "z-score, replicate 2": -0.8}
{"Target gene": "fidipidine", "dsRNA": "DRSC07618", "z-score, replicate 1": -0.3, "z-score, replicate 2": -0.4}
{"Target gene": "Pu", "dsRNA": "DRSC04645", "z-score, replicate 1": -0.1, "z-score, replicate 2": 1.3}
{"Target gene": "CG7460", "dsRNA": "DRSC10850", "z-score, replicate 1": -0.2, "z-score, replicate 2": -0.6}
{"Target gene": "beat-Va", "dsRNA": "DRSC14192", "z-score, replicate 1": -0.2, "z-score, replicate 2": -0.5}
{"Target gene": "TotB", "dsRNA": "DRSC15842", "z-score, replicate 1": 0.2, "z-score, replicate 2": -0.5}
{"Target gene": "Gr10a", "dsRNA": "DRSC18897", "z-score, replicate 1": -0.4, "z-score, replicate 2": 0.5}
{"Target gene": "Secp43", "dsRNA": "DRSC00454", "z-score, replicate 1": -0.3, "z-score, replicate 2": -0.2}
{"Target gene": "CG43345", "dsRNA": "DRSC03164", "z-score, replicate 1": -0.3, "z-score, replicate 2": -0.4}
{"Target gene": "CG9514", "dsRNA": "DRSC20190", "z-score, replicate 1": -0.4, "z-score, replicate 2": -0.2}
{"Target gene": "CG9514", "dsRNA": "DRSC20191", "z-score, replicate 1": -0.1, "z-score, replicate 2": -0.8}
{"Target gene": "meng", "dsRNA": "DRSC02134", "z-score, replicate 1": -0.2, "z-score, replicate 2": -0.1}
{"Target gene": "CG34169", "dsRNA": "DRSC01579", "z-score, replicate 1": 0.1, "z-score, replicate 2": 1.3}
{"Target gene": "rgn", "dsRNA": "DRSC11609", "z-score, replicate 1": 0, "z-score, replicate 2": -0.3}
{"Target gene": "Roc2", "dsRNA": "DRSC07313", "z-score, replicate 1": -0.2, "z-score, replicate 2": -0.5}
{"Target gene": "mthl11", "dsRNA": "DRSC12779", "z-score, replicate 1": 0, "z-score, replicate 2": -0.2}
{"Target gene": "CG32037", "dsRNA": "DRSC10363", "z-score, replicate 1": -0.3, "z-score, replicate 2": -0.3}
{"Target gene": "CG33465", "dsRNA": "DRSC05587", "z-score, replicate 1": 0, "z-score, replicate 2": -0.2}
